These are yes or no findings as the source states them, for the method shown. Binding seen in cells or lysates may run through a third protein. A yes stands for co-enrichment or nearness to the bait. Other partners may have been found. For part of these data: A no says only that the protein was not detected with the bait.
T1: Tsr1-FPZ (S. cerevisiae), Q07381
T1 chain: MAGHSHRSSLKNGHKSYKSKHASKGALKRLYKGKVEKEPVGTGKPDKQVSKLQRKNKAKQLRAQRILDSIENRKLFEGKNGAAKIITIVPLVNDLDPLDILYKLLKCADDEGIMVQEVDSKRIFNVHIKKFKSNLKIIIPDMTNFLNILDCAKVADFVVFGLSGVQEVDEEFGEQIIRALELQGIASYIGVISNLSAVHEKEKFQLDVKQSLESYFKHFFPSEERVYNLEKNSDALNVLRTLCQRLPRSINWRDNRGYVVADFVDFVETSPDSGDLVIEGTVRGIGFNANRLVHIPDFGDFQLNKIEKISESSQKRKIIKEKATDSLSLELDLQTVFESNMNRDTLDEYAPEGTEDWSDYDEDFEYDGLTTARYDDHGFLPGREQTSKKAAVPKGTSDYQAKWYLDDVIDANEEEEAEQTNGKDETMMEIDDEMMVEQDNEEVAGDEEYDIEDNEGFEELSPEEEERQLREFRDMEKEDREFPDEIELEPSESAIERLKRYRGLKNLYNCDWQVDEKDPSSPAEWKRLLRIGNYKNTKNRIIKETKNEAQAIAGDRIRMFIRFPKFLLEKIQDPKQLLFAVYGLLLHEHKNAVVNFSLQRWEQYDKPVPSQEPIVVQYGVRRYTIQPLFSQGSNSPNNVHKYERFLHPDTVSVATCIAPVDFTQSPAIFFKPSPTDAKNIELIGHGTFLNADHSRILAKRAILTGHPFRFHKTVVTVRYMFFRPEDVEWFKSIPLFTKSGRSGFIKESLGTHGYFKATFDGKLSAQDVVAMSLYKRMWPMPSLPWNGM

By UniProt entry, the sequences of proteins in these tests, tags left out. Where a name states a change or a piece, a line headed by the entry shows the natural chain unless it says otherwise.
UniProt P39938: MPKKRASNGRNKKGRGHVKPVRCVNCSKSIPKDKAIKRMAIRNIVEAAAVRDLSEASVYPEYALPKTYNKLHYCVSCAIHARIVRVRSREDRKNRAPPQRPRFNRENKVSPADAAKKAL
UniProt P40160: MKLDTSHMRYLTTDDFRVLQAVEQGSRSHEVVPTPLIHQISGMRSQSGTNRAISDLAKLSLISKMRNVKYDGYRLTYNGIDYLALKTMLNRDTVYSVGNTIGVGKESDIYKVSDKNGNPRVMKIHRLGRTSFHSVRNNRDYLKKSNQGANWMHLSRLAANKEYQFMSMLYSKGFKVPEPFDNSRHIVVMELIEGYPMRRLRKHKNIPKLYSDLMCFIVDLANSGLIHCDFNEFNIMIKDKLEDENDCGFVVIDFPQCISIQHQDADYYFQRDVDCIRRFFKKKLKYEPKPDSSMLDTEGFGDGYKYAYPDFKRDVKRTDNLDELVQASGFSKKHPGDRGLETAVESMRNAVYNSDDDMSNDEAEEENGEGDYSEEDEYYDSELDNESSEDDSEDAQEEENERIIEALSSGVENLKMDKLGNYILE

T2: Tsr1-FPZ (S. cerevisiae) (UniProt Q07381)
T2 sequence (chain, phosphorylated on T354 or S358 (100% of the peptide)): T1 chain

B1: Nob1, Q08444 1-459 (protein)
chain: MTENQTAHVRALILDATPLITQSYTHYQNYAQSFYTTPTVFQEIKDAQARKNLEIWQSLGTLKLVHPSENSIAKVSTFAKLTGDYSVLSANDLHILALTYELEIKLNNGDWRLRKKPGDALDASKADVGTDGKQKLTEDNKKEEDSESVPKKKNKRRGGKKQKAKREAREAREAENANLELESKAEEHVEEAGSKEQICNDENIKESSDLNEVFEDADDDGDWITPENLTEAIIKDSGEDTTGSLGVEASEEDRHVALNRPENQVALATGDFAVQNVALQMNLNLMNFMSGLKIKRIRNYMLRCHACFKIFPLPKDGKPKHFCASCGGQGTLLRCAVSVDSRTGNVTPHLKSNFQWNNRGNRYSVASPLSKNSQKRYGKKGHVHSKPQENVILREDQKEYEKVIKQEEWTRRHNEKILNNWIGGGSADNYISPFAITGLKQHNVRIGKGRYVNSSKRRS
modifications: here or on the partner: phosphorylated on T354 or S358 (100% of the peptide)
B2: Rps3, P05750 1-240 (protein)
chain: MVALISKKRKLVADGVFYAELNEFFTRELAEEGYSGVEVRVTPTKTEVIIRATRTQDVLGENGRRINELTLLVQKRFKYAPGTIVLYAERVQDRGLSAVAQAESMKFKLLNGLAIRRAAYGVVRYVMESGAKGCEVVVSGKLRAARAKAMKFADGFLIHSGQPVNDFIDTATRHVLMRQGVLGIKVKIMRDPAKSRTGPKALPDAVTIIEPKEEEPILAPSVKDYRPAEETEAQAEPVEA
modifications: here or on the partner: phosphorylated on T354 or S358 (100% of the peptide)
B3: Enp1 (protein, UniProt P38333 1-483)
chain: MARASSTKARKQRHDPLLKDLDAAQGTLKKINKKKLAQNDAANHDAANEEDGYIDSKASRKILQLAKEQQDEIEGEELAESERNKQFEARFTTMSYDDEDEDEDEDEEAFGEDISDFEPEGDYKEEEEIVEIDEEDAAMFEQYFKKSDDFNSLSGSYNLADKIMASIREKESQVEDMQDDEPLANEQNTSRGNISSGLKSGEGVALPEKVIKAYTTVGSILKTWTHGKLPKLFKVIPSLRNWQDVIYVTNPEEWSPHVVYEATKLFVSNLTAKESQKFINLILLERFRDNIETSEDHSLNYHIYRAVKKSLYKPSAFFKGFLFPLVETGCNVREATIAGSVLAKVSVPALHSSAALSYLLRLPFSPPTTVFIKILLDKKYALPYQTVDDCVYYFMRFRILDDGSNGEDATRVLPVIWHKAFLTFAQRYKNDITQDQRDFLLETVRQRGHKDIGPEIRRELLAGASREFVDPQEANDDLMIDVN

Target: T1, Tsr1-FPZ (S. cerevisiae), Q07381
Experiment: affinity purification with mass spectrometry; Tsr1-FPZ as bait from yeast lysate; IgG Sepharose, PreScission elution, anti-Flag M2 gel, Flag peptide elution, 10%-30% sucrose gradient; fraction 8 (free pre-40S particles, with 20S pre-rRNA) analysed by label-free bottom-up nanoLC-MS/MS
Details: remark: other sources report otherwise

Row | binding | Molecule
1 | binds | B1
2 | binds | B2

target: T2, Tsr1-FPZ (S. cerevisiae); experiment: as above; details: not given

Row | binding | Molecule
3 | no binding | Rps26 (from UniProt P39938)
4 | binds | Rio2 (from UniProt P40160 1-425)
5 | no binding | Rps31 (S. cerevisiae (endogenous in BY4742))
6 | binds | B3

From paper PMC7179242
